Results: PMC9852426
These are yes or no findings as the source states them, for the method shown. Some binding calls cover weakened binding; strength is not graded here. Where a sequence is shown, tags or fusion partners need not be part of it.

Chains of the proteins cited; added tags and fusions are not shown. Lines headed by an entry give the natural chain unless they say otherwise; changes in a name come on top. A line that says so, or that is headed by a name, gives the form on record, which may keep a tag or linker. Residues count along the entry.
plexin-A2 (full length, V5 tagged), re-expressed in U87MG plexin-A2 knock-out clone 54.3 cells (P70207, residues 35-1894): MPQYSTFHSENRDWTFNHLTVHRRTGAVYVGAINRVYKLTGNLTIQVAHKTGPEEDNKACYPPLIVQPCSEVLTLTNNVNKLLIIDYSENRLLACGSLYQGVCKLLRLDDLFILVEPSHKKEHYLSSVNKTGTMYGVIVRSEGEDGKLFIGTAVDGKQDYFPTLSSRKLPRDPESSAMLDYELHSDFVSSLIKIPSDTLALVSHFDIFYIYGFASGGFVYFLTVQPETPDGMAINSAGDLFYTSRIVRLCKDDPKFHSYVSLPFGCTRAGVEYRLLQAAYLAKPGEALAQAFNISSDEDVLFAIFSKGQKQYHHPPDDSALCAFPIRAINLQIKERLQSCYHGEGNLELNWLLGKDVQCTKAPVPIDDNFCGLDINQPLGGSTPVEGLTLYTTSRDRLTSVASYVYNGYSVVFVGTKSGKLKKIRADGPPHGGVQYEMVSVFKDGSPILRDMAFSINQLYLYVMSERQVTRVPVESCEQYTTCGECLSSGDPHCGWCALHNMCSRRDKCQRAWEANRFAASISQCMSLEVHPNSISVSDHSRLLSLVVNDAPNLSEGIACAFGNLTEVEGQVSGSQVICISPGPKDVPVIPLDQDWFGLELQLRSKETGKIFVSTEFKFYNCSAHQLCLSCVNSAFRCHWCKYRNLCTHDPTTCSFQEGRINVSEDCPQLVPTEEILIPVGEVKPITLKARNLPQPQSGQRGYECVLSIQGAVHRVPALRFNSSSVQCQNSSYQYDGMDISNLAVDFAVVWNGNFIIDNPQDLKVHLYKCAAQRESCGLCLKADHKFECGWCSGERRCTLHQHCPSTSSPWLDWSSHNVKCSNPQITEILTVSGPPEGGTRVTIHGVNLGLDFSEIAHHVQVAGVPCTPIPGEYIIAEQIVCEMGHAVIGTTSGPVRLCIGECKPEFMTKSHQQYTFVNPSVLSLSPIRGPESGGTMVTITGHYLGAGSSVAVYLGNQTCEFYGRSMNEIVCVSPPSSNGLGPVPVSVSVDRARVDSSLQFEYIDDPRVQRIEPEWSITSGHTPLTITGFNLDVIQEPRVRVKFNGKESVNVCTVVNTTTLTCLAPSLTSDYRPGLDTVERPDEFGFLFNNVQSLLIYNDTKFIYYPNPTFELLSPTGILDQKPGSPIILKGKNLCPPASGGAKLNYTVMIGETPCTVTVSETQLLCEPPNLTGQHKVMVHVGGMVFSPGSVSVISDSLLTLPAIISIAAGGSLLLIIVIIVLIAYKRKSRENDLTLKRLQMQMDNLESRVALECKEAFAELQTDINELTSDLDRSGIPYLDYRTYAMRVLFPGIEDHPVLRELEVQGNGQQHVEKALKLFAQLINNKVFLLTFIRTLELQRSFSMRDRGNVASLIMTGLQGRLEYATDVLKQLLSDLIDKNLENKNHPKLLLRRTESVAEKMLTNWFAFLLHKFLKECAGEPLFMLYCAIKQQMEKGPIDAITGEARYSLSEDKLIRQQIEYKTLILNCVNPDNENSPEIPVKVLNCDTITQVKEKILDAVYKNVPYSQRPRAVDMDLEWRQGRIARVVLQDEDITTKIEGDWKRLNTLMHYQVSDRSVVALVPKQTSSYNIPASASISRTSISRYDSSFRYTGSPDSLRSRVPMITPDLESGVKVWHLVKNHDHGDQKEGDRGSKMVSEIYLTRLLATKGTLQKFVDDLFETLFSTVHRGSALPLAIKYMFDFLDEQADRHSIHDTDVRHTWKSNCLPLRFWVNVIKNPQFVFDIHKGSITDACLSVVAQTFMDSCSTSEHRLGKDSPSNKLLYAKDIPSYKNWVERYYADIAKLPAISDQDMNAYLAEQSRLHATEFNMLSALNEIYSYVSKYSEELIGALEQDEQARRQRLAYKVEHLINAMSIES
plexin-A2 containing a point mutation in the semaphorin binding site (PlexA2/A396E) (P70207, form named): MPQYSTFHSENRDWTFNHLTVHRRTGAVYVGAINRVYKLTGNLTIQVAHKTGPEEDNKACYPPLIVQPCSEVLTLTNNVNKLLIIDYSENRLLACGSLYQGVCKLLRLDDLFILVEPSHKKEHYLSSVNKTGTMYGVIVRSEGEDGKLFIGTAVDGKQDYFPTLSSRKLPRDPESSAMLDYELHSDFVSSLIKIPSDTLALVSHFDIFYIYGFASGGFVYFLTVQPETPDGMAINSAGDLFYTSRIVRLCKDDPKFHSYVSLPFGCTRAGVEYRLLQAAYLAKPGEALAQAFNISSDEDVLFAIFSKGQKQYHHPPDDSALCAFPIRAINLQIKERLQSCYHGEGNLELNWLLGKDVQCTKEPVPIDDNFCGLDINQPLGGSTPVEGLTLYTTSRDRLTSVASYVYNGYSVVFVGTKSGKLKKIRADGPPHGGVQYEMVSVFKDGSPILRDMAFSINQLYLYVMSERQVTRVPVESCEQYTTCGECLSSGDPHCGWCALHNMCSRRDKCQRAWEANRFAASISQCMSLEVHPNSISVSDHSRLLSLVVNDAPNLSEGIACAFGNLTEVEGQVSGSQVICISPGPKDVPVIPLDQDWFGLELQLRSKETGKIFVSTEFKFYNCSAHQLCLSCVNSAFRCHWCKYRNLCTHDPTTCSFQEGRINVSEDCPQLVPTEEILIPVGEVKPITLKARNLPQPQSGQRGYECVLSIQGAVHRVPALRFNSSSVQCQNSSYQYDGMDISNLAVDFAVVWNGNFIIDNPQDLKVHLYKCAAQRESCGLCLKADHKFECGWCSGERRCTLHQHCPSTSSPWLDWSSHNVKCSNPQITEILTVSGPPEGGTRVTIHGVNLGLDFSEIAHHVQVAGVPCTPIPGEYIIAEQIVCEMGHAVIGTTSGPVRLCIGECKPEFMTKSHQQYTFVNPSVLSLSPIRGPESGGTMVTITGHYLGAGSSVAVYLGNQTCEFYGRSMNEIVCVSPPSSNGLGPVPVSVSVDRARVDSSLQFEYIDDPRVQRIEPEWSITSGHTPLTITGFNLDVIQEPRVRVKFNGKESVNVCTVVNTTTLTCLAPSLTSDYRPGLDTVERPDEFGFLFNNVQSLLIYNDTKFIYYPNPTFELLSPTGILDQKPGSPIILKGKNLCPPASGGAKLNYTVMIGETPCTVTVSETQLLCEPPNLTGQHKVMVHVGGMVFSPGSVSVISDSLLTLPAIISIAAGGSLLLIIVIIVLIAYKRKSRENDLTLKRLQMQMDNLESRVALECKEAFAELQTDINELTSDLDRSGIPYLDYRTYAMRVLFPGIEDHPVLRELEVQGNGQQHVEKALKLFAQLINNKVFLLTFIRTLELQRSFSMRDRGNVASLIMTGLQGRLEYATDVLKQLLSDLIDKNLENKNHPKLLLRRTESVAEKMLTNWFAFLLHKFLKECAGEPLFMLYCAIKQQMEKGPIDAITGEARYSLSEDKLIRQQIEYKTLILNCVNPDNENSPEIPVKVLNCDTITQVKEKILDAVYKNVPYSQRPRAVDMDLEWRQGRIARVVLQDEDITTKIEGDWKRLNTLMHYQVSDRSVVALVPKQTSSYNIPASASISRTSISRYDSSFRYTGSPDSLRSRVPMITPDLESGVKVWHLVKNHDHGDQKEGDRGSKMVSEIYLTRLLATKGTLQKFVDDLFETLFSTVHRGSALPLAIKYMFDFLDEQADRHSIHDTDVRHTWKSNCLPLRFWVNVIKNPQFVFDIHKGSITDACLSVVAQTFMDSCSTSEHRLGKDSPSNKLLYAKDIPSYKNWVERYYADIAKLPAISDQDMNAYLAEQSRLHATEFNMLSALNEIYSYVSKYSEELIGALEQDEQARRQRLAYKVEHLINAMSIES

Tests used:
[1] = molecular target: plexin-A2 (full length, V5 tagged), re-expressed in U87MG plexin-A2 knock-out clone 54.3 cells (UniProt P70207); test: alkaline phosphatase binding assay on cells; plexin-A2 or PlexA2/A396E on U87MG KO clone 54.3 cells; 20-fold concentrated sema6A-Fc conditioned medium with AP-conjugated goat anti-human IgG (1/5000), 45 min at 4 °C; binding buffer HBSS with 0.5% BSA, 0.1% NaN3, 5 mM CaCl2, 1 mM MgCl2, 20 mM HEPES pH 7.0; BCIP/NBT staining, stained cell area measured
[2] = molecular target: plexin-A2 containing a point mutation in the semaphorin binding site (PlexA2/A396E) (UniProt P70207); test: condition: 20-fold concentrated sema6A-Fc conditioned medium; alkaline phosphatase binding assay on cells; plexin-A2 or PlexA2/A396E on U87MG KO clone 54.3 cells; 20-fold concentrated sema6A-Fc conditioned medium with AP-conjugated goat anti-human IgG (1/5000), 45 min at 4 °C; binding buffer HBSS with 0.5% BSA, 0.1% NaN3, 5 mM CaCl2, 1 mM MgCl2, 20 mM HEPES pH 7.0; BCIP/NBT staining, stained cell area measured

B1: recombinant sema6A-fc fusion protein (extra-cellular region of sema6A fused to the human Fc) (Fc fusion, UniProt O35464 19-649)
chain: GFPEDSEPISISHGNYTKQYPVFVGHKPGRNTTQRHRLDIQMIMIMNRTLYVAARDHIYTVDIDTSHTEEIYCSKKLTWKSRQADVDTCRMKGKHKDECHNFIKVLLKKNDDTLFVCGTNAFNPSCRNYRVDTLETFGDEFSGMARCPYDAKHANIALFADGKLYSATVTDFLAIDAVIYRSLGDSPTLRTVKHDSKWLKEPYFVQAVDYGDYIYFFFREIAVEYNTMGKVVFPRVAQVCKNDMGGSQRVLEKQWTSFLKARLNCSVPGDSHFYFNILQAVTDVIRINGRDVVLATFSTPYNSIPGSAVCAYDMLDIANVFTGRFKEQKSPDSTWTPVPDERVPKPRPGCCAGSSSLEKYATSNEFPDDTLNFIKTHPLMDEAVPSIINRPWFLRTMVRYRLTKIAVDNAAGPYQNHTVVFLGSEKGIILKFLARIGSSGFLNGSLFLEEMNVYNPEKCSYDGVEDKRIMGMQLDRASGSLYVAFSTCVIKVPLGRCERHGKCKKTCIASRDPYCGWVRESGSCAHLSPLSRLTFEQDIERGNTDGLGDCHNSFVALNGHASSLYPSTTTSDSASRDGYESRGGMLDWNDLLEAPGSTDPLGAVSSHNHQDKKGVIRESYLKSNDQLVPVT
binding [1]: binds | binding [2]: no binding
